Measurements from article doi:10.1101/2020.06.18.159806.
Positions count from the first letter of the chain named. Where two headings read alike, the source gives them in different places. Results are given in words; binding and its absence hold for the method and conditions named. Binding seen in cells or lysates may run through a third protein. Some results given as binding are weak or reduced against the parent protein; the word gives no strength. Sequences can lack the tags named with a protein.

The chains behind the UniProt entries cited, without tags or fusion partners. Where a name states a change or a piece, a line headed by the entry shows the natural chain unless it says otherwise. Residues count along the entry.
UniProt P22681, 47-357: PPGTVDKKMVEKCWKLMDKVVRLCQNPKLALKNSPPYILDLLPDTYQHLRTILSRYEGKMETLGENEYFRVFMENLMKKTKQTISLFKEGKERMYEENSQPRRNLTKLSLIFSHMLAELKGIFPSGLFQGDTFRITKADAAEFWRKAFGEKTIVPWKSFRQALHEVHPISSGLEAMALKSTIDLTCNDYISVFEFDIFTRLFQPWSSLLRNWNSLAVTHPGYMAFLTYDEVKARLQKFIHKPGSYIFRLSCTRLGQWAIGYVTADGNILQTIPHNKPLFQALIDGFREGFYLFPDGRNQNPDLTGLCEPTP

Columns and labels:
Assay in all cases: pull-down
[1] = molecular target: T1, Trx-His(6)-Δlinker-hSLAP2 (human SLAP2 residues 29-261) (human) (UniProt Q9H6Q3)
T1 sequence: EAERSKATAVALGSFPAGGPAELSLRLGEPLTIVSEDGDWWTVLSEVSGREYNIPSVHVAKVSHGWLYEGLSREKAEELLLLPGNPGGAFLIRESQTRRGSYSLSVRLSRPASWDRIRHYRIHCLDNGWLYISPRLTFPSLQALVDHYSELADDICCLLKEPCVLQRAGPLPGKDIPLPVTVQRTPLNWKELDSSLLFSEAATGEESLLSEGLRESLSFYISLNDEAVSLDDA

[2] = molecular target: T2, Trx-His(6)-Δlinker-hSLAP2 (29-261) I249W (human) (UniProt Q9H6Q3)
T2 sequence: T1 sequence with I221W

[3] = molecular target: T3, Trx-His(6)-Δlinker-hSLAP2 (29-261) R242A (human) (UniProt Q9H6Q3)
T3 sequence: T1 sequence with R214A

[4] = molecular target: T4, Trx-His(6)-Δlinker-hSLAP2 (29-261) G240R (human) (UniProt Q9H6Q3)
T4 sequence: T1 sequence with G212R

[5] = molecular target: T5, Trx-His(6)-Δlinker-hSLAP2 (29-261) S246/250E (human) (UniProt Q9H6Q3)
T5 sequence: T1 sequence with S218E, S222E

[6] = molecular target: T6, Trx-His(6)-Δlinker-hSLAP2 (29-261) Y248F (human) (UniProt Q9H6Q3)
T6 sequence: T1 sequence with Y220F

[7] = molecular target: T7, Trx-His(6)-Δlinker-hSLAP2 (29-261) S244E (human) (UniProt Q9H6Q3)
T7 sequence: T1 sequence with S216E

[8] = molecular target: T1, Trx-His(6)-Δlinker-hSLAP2 (human SLAP2 residues 29-261) (human); remark: listed apart in the source

binding [1]	binding [2]	binding [3]	binding [4]	binding [5]	binding [6]	binding [7]	binding [8]	Substance
binds								CBL (47-357) A223R (from UniProt P22681 47-357) (domain or fragment)
binds	binds	binds	binds	binds	binds	binds	binds	CBL (47-357), co-expressed from MCS2 of pETDuet-1 (from UniProt P22681 47-357) (domain or fragment)
